The text below walks through data of PMC8468769.

Chains of the proteins cited; added tags and fusions are not shown. Lines headed by an entry give the natural chain unless they say otherwise; changes in a name come on top.
UniProt F7VN14: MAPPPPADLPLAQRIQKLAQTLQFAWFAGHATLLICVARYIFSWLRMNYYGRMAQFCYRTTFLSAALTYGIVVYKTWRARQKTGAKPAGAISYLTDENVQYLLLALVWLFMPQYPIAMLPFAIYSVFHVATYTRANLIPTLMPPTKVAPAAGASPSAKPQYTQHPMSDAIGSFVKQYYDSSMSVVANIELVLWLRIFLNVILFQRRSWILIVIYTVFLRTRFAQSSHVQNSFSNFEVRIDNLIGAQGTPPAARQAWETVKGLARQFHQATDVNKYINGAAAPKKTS

No constants are given. Whether binding was seen depends on the method and setting. Binding seen in cells or lysates may run through a third protein. Here binding means that the protein was enriched with, or labelled near, the bait; the list need not be complete.

B1: fatty acid desaturase (SMAC_03650) (protein, UniProt F7VVS7 1-481)
chain: MASVSSALPIGNKPALRRTQTEATTDSYPATADASPFDSPLERSASNTSLSSLASDNVKVDKAEFGKLIDTYGNEFEVPDFTIKDIRDAIPKHCYERSALRSLSYVVRDMIYLAVTFYVWNKYVTPEYIPLKAARVVLWGLYTFMQGLFGTGLWVLAHECGHQAFSPSKLINDTVGWVLHSALLVPYFSWKFSHSKHHKATGNIERDMVFVPRTREQQASRIGRFAHELSELTEETPIYTLIHLLGQQLIGWPNYLMTNVTGHNNHEKQREGRGKGKVNGWFTGVNHFNPSSPLYDEREAPWIIVSDVGIAITATALVYLGNTFGWSNMFVWYFLPYLWVNHWLVAITYLQHTDPSLPHYTAEEWNFVRGAAATIDREFGFIGRHLLHGIIETHVLHHYVSTIPFYNADEASEAIKKVMGKHYRSDVQDGPIGFIKSMWKAARWCQWVEPTEGAEGKGKGVLFYRNQNNLGVKPAKLPKTN
B2: TMEM16-like protein (SMAC_00943) (protein, UniProt F7VNJ0 1-738)
chain: MADPLSFYLQDDKAQPGTGSNFDVDYVIHYKLPTTSVKEKEEAEAAFIQLINALSAVGFATEVRPGGKSSLLVFTKIASEKLLTSQVYRYRIQDWLFGVRTSAPNQDLSKYLEEEPVSEAERLRLTYLLITKSKNEGGAGITAKVGKWKYVESVFPLHDHAFNRRWIKAWSGKYFLDEEDLNRIRDKFGERVAFYFAFLQSYFAFLLFPAAFGFAAWLILGKFSWFYAVVNSLWSVVFFEHWKTKEVDLAVRWGVRGVSRIQHPRPQFQYERETQDPITGEIVRVYSPFKRLSRQLLQIPFALACVVVLGGLIASCFSIEVFITEIYAGPFKQYLTFLPTVLLTIFMPTFSGLLTNLAEQLTKAENYETHDAHQASFIEKIFVLNFITSYLPILLTAFVYVPFGKLLVPYLDVFKVTAQSFTTMEKPVTKSWEINPDRLTQQVIYFTVTAQIVNFLTEVIVPYAKRKVFKKVQEVQSEFSGNGHELQIKDHPDEADFLKRVRNEAELDEYDVTVDYREMVVQFGYLSLFSVIWPLAACSFLANNWVEARSDALKIAIGSQRPVPWRADSIGPWLNSLGFLSWMGSITSAALVYLFNKHDINPDGTPWDISGWALLLSILFAEHIYFAVQLVVRSLVQKLDNPGLQKERAERYAMRKKLLEQTFGSHGHDADLTEEAQGPGHVSSGERITREALEEEARVNATKTPEQLFWLRQRGAAETIEIGRGLIAEVAAANQTKS
B3: acyl-CoA desaturase 1 (SMAC_01733) (protein, UniProt F7VRP8 1-477)
chain: MASTSATDVPPEVQAVNVPDGTTDFIPLRGKKYDLKKPHITEMPITWGNWYKHVNWLNTTFIIFVPLAGLISAYWVTLQTKTLIFSIAYYYFAGLGITAGYHRLWAHTSYKATLPLKIWLAAGGAAAVEGSARWWSRDHRAHHRYTDTDKDPYSVRKGLLYSHIGWMVMKQNPKRIGRTDITDLNEDPVVVFQHKHYIKCVITMALIVPTLICGFGWGDFAGGFIYGGILRIFFIQQATFCVNSLAHWLGDQPFDDRNSPRDHVITALVTLGEGYHNFHHEFPSDFRNAIQWWQYDPTKWCIWAWKQLGLAYDLKKFPHNEIEKGRLQQQQKKLDQKRATLDWGIPLENLPVVSWDDFVQESKNGKAWIAVAGVIHDVGKFIKDHPGGKALINSAIGKDATAIFNGGVYNHSNAAHNLLSTMRVGVIRGGCEVEIWKRAQAENKDIATVTDSSGKKIVRAGLQPTRVTPPVTTADAA
B4: translocation complex component (putative SEC63) (SMAC_02255) (protein, UniProt F7W331 1-700)
chain: MSTDYAYDEEGHLWPFFVFTLTSIVTVPITYSLIKSSRNDPAAALKRIHTDYKHDQSSVVDTLRKSEKRKDGSKPWLIALVIAGWAVMGYMLYLIKITDAPVQNLWNPYDILGISESATEKQIKKTYKMLSLKFHPDKARPDVAKNETIDDLNRRYVEISKAYQALTDEDVRNNFIQFGNPDGKQGFSINIALPKAIVSDGNGKYIVLIYFALFGVLLPYLVGSWWYGTLRRSKEGVLMESANRLFKEYQDNIDEGGVIAALSSGQEFEDLFKGDKADAGLSKIESKVMASDELPPKEKKKLEDVESGPRRKALALLWAYLGRIELGDATLEKAKFQVAPIAHALNKSFNAIALAYMNTAPLLASYFASQRLIQAIPPKASPLYQLPHFNSTIVEAVEGDSRVHTTVQAFMDQPDAKRRSLVVGKGLLTDAQYKESIAYAKQLPYLRVAKAFFKVTGEKFIIPSSLVTLVVKGRFVPPGSEKVPDVKPIDLDDIDPAEDDLDAILGRKKTKKLVGKDEKGKPIYEETTESEDIYPPLASSPYFARDHSPRWHVFLTDSKQGRVAVPPFTFVSFDRPIYEADGKTPTFAMQTLKAQFQAPPQAGHYTFVMHIVCDSYVGFDTKMEVTLVVEDASRAADMKVEEEISEPEEDSIAGIMNAAKGAPTKQRVIKDEDDSDEESGTDDDEDDDTSDTNTDTEAEN
B5: signal recognition particle (SRP) receptor subunit beta (SMAC_09603) (protein, UniProt F7WCA6 1-355)
chain: MSTTIETIATTATVVATTAAAGASSNTSSYSTEHIKELVKDLLIASLQPNKTVIITGLLIVLLVPVILHQYLHGDESGSSSSSSSLPSIILAGPSGAGKTALLTLFEKRAGRKTSPSSTDEKTASGAEPALTHTSQTPVSVELNAASFSSSDEDRKPRKFLLIDTPGHPKLRSTALNHLLPLDPKTGRPLPPSKTSHIKGVLFLLDASTLSPSSPDSSLSQTATYLYDLLLALQHRYSRHSKGSKHPPSIPVLIAANKLDLFTALPATLVKKELEAEIGRIRVSRSKGLLDSGVKEDVVDEKEEGDDWLGEYGSEKFEFRQMQEFDIEVEVVGGSVAGTEGPGVEGWWRWVVERV
B6: dolichyl-phosphate-mannose-protein mannosyltransferase (SMAC_08483) (protein, UniProt F7WA79 1-774)
chain: MASTTAIPEATLRQRNVPALTKKAKNGISSDVEIDKVPNAVAPAKSGSELEYKLALGLITGLAFLTRFWGISHPDEVVFDEVHFGKFASYYLERTYFFDVHPPFGKLLFAFMGWLVGYDGHFHFENIGDSYIRNKVPYVAFRSLPAILGALTVSVVYMIMWESGYSLPACLIAAGLVLLDNAHIGQTRLILLDATLVFAMACSLLCYIKFHKLRHEPFSRKWWKWLILTGFALSCDISTKYVGLFAFITIGSAVCIDLWDLLDIKRPGGALTLPQFGKHFAARAFGLIIMPFIFYLFWFQVHFSILTRSGPGDDFMTPEFQETLSDNIMLANAVTIDYYDTISLRHKETKAYLHSHPDKYPLRYDDGRVSSQGQQVTGYPFNDTNNYWQILPPGPDDQKLDHHIKNHDLVRLRHIVTDTILLSHDVASPYYPTNQEFTTVSIGDAYGDRAADTLFEIRIEHGKANQEFKSISSHFKLIHNPSKVAMWTHSKPLPEWGHKQQEINGNKQLAQSSNVWLVEDIVSLPADHPRRAKPEKKVKTLPFLRKWFELQRSMFWHNNQLTSSHPYASLPYQWPFLLRGVSFWTQNETRQQIYFLGNPIGWWLASSVLAIYVGIVLADQFSLRRGLDAMDRRTRSRLYNSTGFFFLAWATHYFPFFVMGRQLFLHHYLPAHLASALVTGSVVEFLFSTDSAEPDYHPSKSSKKVAPTTKRRLSARERLAGQSMAGAWIATAVIMALVAFGWYYFLPLTYGYPGLTAPEVNRRKWLGYDLHFAK
B7: cyclopropane-fatty-acyl-phospholipid synthase (SMAC_02133) (protein, UniProt F7W124 1-525)
chain: MSEPHSVSGAKPAYIFVETPAQPLSNTEKPKEDYGVRTTTFPAIKNAPLPADAAGTESFSNVLLFSILFGVPYYFSWKVGGGLKTTLFFALFTTLPLLAAFWVSHSMFSPRKNEKARFPGRPVEHYLTFKNPEDKLKYSGKNKIPMETFHEMYFNEEVDFNGDALDVMEYRHDWASFHFTYGLIKFFLTGMIPEVLMHTRSQDEEQVRDHYDRGDDFYSWFLGPRMIYTSGIISDANKEETLEELQDNKLAIVCEKADLKEGERLLDIGCGWGTLARFASVNYGVKATGITLGRNQTAWGNKALRTAGIPEEQSKILCMDYRDIPVSEGKYNKITCLEMAEHVGVRHFKGFMKQVYNMLDDDGIAVFQLAGLRKSWQYEDLVWGLFMNKHIFPGADASTPLGWYIDQFEKAGFEVRAVDTIGVHYSATLWRWYRNWLANREKVVAKYGKRWFRIWEFFLAYSTIIARQGSATCYQMTLVKNLNSTHRAEAIHTQQGLLGALRNTRANLKAWAQANAAEFPTVPAN
B8: putative tricalbin (SMAC_02980) (protein, UniProt F7VY15 1-1470)
chain: MATQQSANELKQQGAIEAAQDPNSSVTAEQAEKKIVADSQELGITAFTFDPNASAADKAAQAREAIPHGLRRPKGLAIASDLDDGSKTDIDLPPPSKAGALDLPTTADGKVIEDDRTPEQVEADLIKKVGWAPRFGWPKNPEEEQDLLDHATFVESNLSENYFGVAVLGGGLGWVFIIMACCSTYYRTSLRRVRRNFRDDITRELGLKKLETDNESVEWINSFLVKFWPIYQPVLAQTVINSVDQVLSMSTPAFLDSLKLKTFTLGSKPPRMEHVKTYPKAEDEVVIMDWMFSFTPNDTADMTARQLQNKVNPKVVLEIRVGKAMISKGLDVIVEDMSFSGLMRLKIKFQMAFPHIEKVEMCFLERPKIDYVCKPLGGDTFGFDINFIPGLESFIQEMIHATLAPMMYAPNVFPIEVAKMLAGTPVDRAIGVVAITLHGAQGLKNPDKFSGTPDPYAVLSLSKRQPLAQTKVIKENDNPRWNETHYIIISSFNDSLDIDVFDFNDFRKDKKLGVTSFPLENLEEINEFENERLELKYDGKARGAVSCDIRFFPVLEEIKLPDGTVEPPPESNTGILSFTVEQAKELDSSKSMVGQLNPYAMLLLNGKEVHKTKTMKRTNQPIWPNGSKEILITDRKNAKLGVALKDDRDIAGDQLLGTYQIKLDDMLEFMAKGQDWYSLAGTKTGRVKMMAQWRPVAISGAAASTGGYTTPAGVMRLHFINARSLRNVEALGKSDPYVRVLLSGIEHGRTVTHKNNLNPDFDEVLYIPVHSPKERLQLDVMDAENMGRDRSLGLTEIFAGDYMKKDPETGEWLVHEKKDLRQDGLRMHGKGVAKGVLSYTVAFYPCLNIADPEDDEKEEQSDQSSEPKQSLDVPRSSDAGKFSSTLERTDSIKPENGGTSRPITPKTPVTPTSVVASRKSSDQKEPPKLRLNPQELLQYESGLIIFKLMEAELPKSQCRVEVCVDDYAFPSYVSSTSRTKTHTFDEIGDCFIRELEFSKLTIKINERSEKQEENGKENTLARLSGNTLDTLKQCLNNPTTLKLKNEDGKVYSIKVSLKYVPVRMQLDPSESINNMGHLRVDVLDAQNLPSADSNGKSDPYVKFEFNGQEVFKSKTVKKTLNPTWNEFFELPVPSRTAATFKALVWDWDFADKPDFLGSADINLGQLEPFRAQEVRLTLDGKSGVLRLRLLFRPDYVTRTRQGTSTLVGTFAVPGKIVTGVAGVPLKGVGAVGHGVGKGASFIKRGFRSNTKRDDDSDSNTNSSVELPTIITNAPEPPSGLKRSAVITEADGSSNELHHARTRSVGASSVRSAMFPGASSGTASFTVVSASGYPPSTDVYVTITQLKDGKSKAVGKTKHRKSSSGTVKFDETFNIQCTPDSQFKIEAKEHHTFGSDDHLGESVYFVDESNSGQEKALKVGSGTVYLKSGFVPSESAQDASSTLSPDQSPKSSSLRRSFLSKGARSPSRDGP

This assay has as its target SmPOM33-TagRFP-T (Sordaria macrospora) (UniProt F7VN14). As to the kind of experiment: affinity purification with mass spectrometry; POM33-TagRFP-T precipitated from S. macrospora mycelium lysate (lysis buffer without NP-40) with anti-TagRFP-T antibody and Protein G Dynabeads, 4 °C; control free TagRFP-T strain; LC/MS with label-free quantification, FDR 0.01, S0 0.1; two experiments, seven samples.
Take B1: the binding entry is given as “binds”. For B2 the value was “binds”. As for B3, the binding result is recorded as “binds”.

For B4, the binding result was “binds”.

On to B5, for which the binding entry is reported as “binds”. With B6, the binding result is “binds”. Regarding B7, the binding entry was “binds”. The result for B8 reads “binds”.
